# The other results are listed elsewhere or left out. Repeats in this data set agree poorly, so a single value says little.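 Researchers measured free-swimming zebrafish larvae's O-bend response probability to dark flashes (naive: first five; training: remaining flashes of four 60-flash blocks; test: later 60-flash block) and OMR turning toward alternating leftward/rightward LED motion. Six treated larvae were compared to sixty 0.1% DMSO controls, with |SSMD|≥2 marking a hit.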
# Tests used:
# Settings in all cases: 10 µM; pre-incubation: 30-90 min
# [1] = tested on: Danio rerio larvae (5 dpf, TLF); assay: OMR-Perf (SSMD vs DMSO vehicle); higher = higher than vehicle (e.g. higher dark-flash O-bend response probability, or better optomotor performance)
# [2] = tested on: Danio rerio larvae (5 dpf, TLF); assay: Prob-Test (SSMD vs DMSO vehicle); higher = higher than vehicle (e.g. higher dark-flash O-bend response probability, or better optomotor performance)
# [3] = tested on: Danio rerio larvae (5 dpf, TLF); assay: Prob-Naive (SSMD vs DMSO vehicle); higher = higher than vehicle (e.g. higher dark-flash O-bend response probability, or better optomotor performance)
# [4] = tested on: Danio rerio larvae (5 dpf, TLF); assay: Prob-Train (SSMD vs DMSO vehicle); higher = higher than vehicle (e.g. higher dark-flash O-bend response probability, or better optomotor performance)
SMILES,OMR-Perf [1],Prob-Test [2],Prob-Naive [3],Prob-Train [4]
CCCSc1ccc2nc(NC(=O)OC)[nH]c2c1 [Albendazole],-0.854,-1.69,0.096,0.193
Cl.Nc1c(Br)cc(Br)cc1CN[C@H]1CC[C@H](O)CC1 [Ambroxol HCl],-0.164,0.171,-0.168,0.0961
CC1(C)SC2C(NC(=O)[C@H](NC(=O)N3CCNC3=O)c3ccccc3)C(=O)N2C1C(=O)O.[Na] (some centres not stated) [Azlocillin sodium salt],-0.106,-0.046,-0.265,-0.0449
N[C@@H](Cc1cc(I)c(Oc2ccc(O)c(I)c2)c(I)c1)C(=O)[O-].[Na+] [Liothyronine Sodium],0.0447,-1.15,-0.314,-1.43
CC(=O)OCC(=O)[C@]1(O)CC[C@H]2[C@@H]3CCC4=CC(=O)C=C[C@]4(C)[C@@H]3[C@H](O)C[C@@]21C [Prednisolone acetate (Omnipred)],0.193,0.373,0.131,0.208
CN(C)Cc1ccc(-c2nc3cccc4c3n2CCNC4=O)cc1,-0.23,0.365,0.146,0.059
CCOCC(O)COc1ccc(NC(=O)CC[S+](C)C)cc1.Cc1ccc(S(=O)(=O)[O-])cc1 (configuration not stated) [Suplatast Tosylate],0.068,-0.235,-0.327,0.0196
CC1(C)O[C@@H]2C[C@H]3[C@@H]4CCC5=CC(=O)C=C[C@]5(C)[C@]4(F)[C@H](O)C[C@]3(C)[C@@]2(C(=O)CO)O1 [Triamcinolone Acetonide],0.655,0.0274,0.121,0.575
O=C(O)c1cccc(-c2noc(-c3ccccc3F)n2)c1 [Ataluren (PTC124)],-0.47,-1.54,-0.905,-0.373
CN1CC(=O)NC1=N [Creatinine],-0.0196,-0.291,-0.0927,-0.684
Cc1ccc2nc(NCCN)c3ncc(C)n3c2c1,-0.281,-0.274,-0.32,-0.301
NS(=O)(=O)C#Cc1ccccc1 [Pifithrin-Î± (PFTÎ±)],-0.566,-1.39,-1.98,-2.33
NC(=O)OCC(COC(N)=O)c1ccccc1 [Felbamate],-0.307,0.208,-0.234,-0.0131
CCN(CC)CCCCNc1ncc2cc(-c3cc(OC)cc(OC)c3)c(NC(=O)NC(C)(C)C)nc2n1,-0.575,-0.139,0.471,-0.367
C=C1CC[C@H](O)C/C1=C\C=C1/CCC[C@@]2(C)[C@H]1CC[C@H]2[C@H](C)CCCC(C)(C)O [Calcifediol],-1.09,-1.6,-0.483,-1.59
N[C@@H](Cc1ccc(O)c(O)c1)C(=O)O [Levodopa (Sinemet)],-0.353,-0.243,-0.142,-1.15
CN1CCC(NC(=O)C2=CC(=C3C(O)=CC(=O)C=C3Oc3ccc([N+](=O)[O-])cc3)ON2)CC1,-0.0338,0.205,0.0243,0.43
Cc1cc([C@@H](C)Nc2ccccc2C(=O)O)c2nc(N3CCOCC3)cc(=O)n2c1,-0.0339,0.388,0.564,0.151
"Cn1c(CNc2ccc(C(=N)N)cc2)nc2cc(C(=O)N(CCC(=O)O)c3ccccn3)ccc21 [BIBR 953 (Dabigatran etexilate, Pradaxa)]",-0.36,-0.11,-0.301,-0.473
CC(C)(C)OC(=O)N[C@H]1CCCCC/C=C\[C@@H]2C[C@@]2(C(=O)NS(=O)(=O)C2CC2)NC(=O)[C@@H]2C[C@@H](OC(=O)N3Cc4cccc(F)c4C3)CN2C1=O [Danoprevir (ITMN-191)],-0.82,0.414,-0.094,0.212
CCCc1ncc(C[n+]2ccccc2C)c(N)n1.Cl.[Cl-] [Amprolium HCl],0.3,0.134,0.585,0.519
N#C[C@@H]1CCCN1C(=O)CNC12CC3CC(CC(O)(C3)C1)C2 [Vildagliptin (LAF-237)],0.832,-0.463,-0.205,-0.716
CO[C@H]1C[C@@H]2CC[C@@H](C)[C@@](O)(O2)C(=O)C(=O)N2CCCC[C@H]2C(=O)O[C@H]([C@H](C)C[C@@H]2CC[C@@H](O)[C@H](OC)C2)CC(=O)[C@H](C)/C=C(\C)[C@@H](O)[C@@H](OC)C(=O)[C@H](C)C[C@H](C)/C=C/C=C/C=C/1C [Rapamycin (Sirolimus)],0.0655,0.147,0.00409,0.249

# 2 consecutive compounds already listed, quoted:
SMILES,OMR-Perf [1],Prob-Test [2],Prob-Naive [3],Prob-Train [4]
CC1(C)O[C@@H]2C[C@H]3[C@@H]4CCC5=CC(=O)C=C[C@]5(C)[C@]4(F)[C@H](O)C[C@]3(C)[C@@]2(C(=O)CO)O1 [Triamcinolone Acetonide],0.655,0.0274,0.121,0.575
O=C(O)c1cccc(-c2noc(-c3ccccc3F)n2)c1 [Ataluren (PTC124)],-0.47,-1.54,-0.905,-0.373

# — the supplement of paper PMC10727501
